Only a part is listed here, and it is no random draw. Calls are pooled over several reports, among them a noisy single-well screen. The list shows a part of the results.
Columns and labels:
Settings in all cases: stereoisomer not certain
[1] = test system: T1, OR1L1
T1 sequence (whole entry): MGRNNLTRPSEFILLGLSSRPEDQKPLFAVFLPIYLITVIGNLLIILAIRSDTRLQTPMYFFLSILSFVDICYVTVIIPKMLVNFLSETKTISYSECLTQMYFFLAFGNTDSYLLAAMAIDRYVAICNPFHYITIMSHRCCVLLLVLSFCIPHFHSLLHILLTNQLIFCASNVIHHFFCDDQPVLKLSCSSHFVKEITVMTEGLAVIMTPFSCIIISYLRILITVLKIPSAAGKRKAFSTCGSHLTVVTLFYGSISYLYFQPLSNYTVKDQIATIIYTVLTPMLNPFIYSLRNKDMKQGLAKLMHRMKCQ
How it was run: (§1)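 Each entry records the cell line, G-protein, co-transfected protein and tags used. Methods varied with the source, often transient luciferase assays in mammalian cell lines. A receptor–molecule pair is called responsive (active) if the original authors judged its signal statistically different from baseline and non-responsive (inactive) otherwise.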

[2] = target: T2, OR1L3 (Homo sapiens) (UniProt Q8NH93)
T2 sequence (whole entry): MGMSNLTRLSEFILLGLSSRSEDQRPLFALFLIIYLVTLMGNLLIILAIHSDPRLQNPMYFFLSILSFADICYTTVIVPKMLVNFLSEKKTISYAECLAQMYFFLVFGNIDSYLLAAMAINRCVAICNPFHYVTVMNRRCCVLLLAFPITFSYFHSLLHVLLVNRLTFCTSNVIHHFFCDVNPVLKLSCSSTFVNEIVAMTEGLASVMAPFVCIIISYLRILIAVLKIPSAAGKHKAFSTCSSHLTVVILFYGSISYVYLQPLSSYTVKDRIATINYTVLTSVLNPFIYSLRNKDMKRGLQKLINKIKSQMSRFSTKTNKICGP
How it was run: as §1

[3] = test system: T3, OR1L4
T3 sequence (whole entry): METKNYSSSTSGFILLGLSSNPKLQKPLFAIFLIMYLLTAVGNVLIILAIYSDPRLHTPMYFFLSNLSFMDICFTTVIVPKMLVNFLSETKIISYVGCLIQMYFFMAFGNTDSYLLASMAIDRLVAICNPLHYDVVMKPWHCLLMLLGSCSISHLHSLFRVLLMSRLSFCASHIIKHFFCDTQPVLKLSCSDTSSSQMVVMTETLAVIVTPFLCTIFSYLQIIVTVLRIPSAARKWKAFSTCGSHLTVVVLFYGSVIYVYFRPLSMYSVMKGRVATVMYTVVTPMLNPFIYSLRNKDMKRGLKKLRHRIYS
How it was run: as §1

[4] = test system: T4, OR1L6
T4 sequence (whole entry): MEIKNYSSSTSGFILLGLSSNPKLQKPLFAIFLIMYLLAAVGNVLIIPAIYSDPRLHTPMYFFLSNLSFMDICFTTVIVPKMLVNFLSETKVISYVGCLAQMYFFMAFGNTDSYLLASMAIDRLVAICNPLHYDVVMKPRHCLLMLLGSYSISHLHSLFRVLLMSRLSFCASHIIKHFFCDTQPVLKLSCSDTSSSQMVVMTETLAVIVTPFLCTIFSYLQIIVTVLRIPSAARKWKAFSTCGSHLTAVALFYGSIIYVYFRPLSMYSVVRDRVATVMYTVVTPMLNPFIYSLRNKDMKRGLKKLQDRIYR
How it was run: as §1

[5] = target: T5, OR1L8 (Homo sapiens) (UniProt Q8NGR8)
T5 sequence (whole entry): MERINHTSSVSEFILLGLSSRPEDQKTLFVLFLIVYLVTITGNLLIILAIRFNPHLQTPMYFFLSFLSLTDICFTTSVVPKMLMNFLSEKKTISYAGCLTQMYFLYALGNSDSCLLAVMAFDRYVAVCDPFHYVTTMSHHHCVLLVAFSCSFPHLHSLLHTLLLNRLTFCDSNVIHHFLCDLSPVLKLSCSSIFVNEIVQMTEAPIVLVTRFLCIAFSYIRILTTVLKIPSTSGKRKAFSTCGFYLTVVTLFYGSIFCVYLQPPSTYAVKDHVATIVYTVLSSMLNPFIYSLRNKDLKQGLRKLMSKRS
How it was run: as §1

[6] = test system: T6, OR1M1
T6 sequence (whole entry): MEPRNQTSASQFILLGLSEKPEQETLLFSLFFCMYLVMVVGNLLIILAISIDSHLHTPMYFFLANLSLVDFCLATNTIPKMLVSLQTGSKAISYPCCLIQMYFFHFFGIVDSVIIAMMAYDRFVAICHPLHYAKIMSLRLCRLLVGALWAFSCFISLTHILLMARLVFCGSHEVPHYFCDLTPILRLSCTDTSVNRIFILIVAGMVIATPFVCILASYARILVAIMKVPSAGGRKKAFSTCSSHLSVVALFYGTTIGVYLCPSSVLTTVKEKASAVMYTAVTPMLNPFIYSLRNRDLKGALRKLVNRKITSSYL
How it was run: as §1

[7] = target: T7, OR1N1 (Homo sapiens) (UniProt Q8NGS0)
T7 sequence (whole entry): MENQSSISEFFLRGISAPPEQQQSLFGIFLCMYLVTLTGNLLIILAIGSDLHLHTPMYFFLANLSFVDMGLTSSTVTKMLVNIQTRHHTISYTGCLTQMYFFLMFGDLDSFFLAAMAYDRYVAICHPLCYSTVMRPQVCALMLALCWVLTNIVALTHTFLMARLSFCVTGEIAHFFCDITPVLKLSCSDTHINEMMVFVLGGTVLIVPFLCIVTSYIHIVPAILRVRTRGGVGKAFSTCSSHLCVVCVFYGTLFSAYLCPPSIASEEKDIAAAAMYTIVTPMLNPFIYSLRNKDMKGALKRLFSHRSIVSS
How it was run: as §1

[8] = target: T8, OR1N2 (Homo sapiens) (UniProt Q8NGR9)
T8 sequence (whole entry): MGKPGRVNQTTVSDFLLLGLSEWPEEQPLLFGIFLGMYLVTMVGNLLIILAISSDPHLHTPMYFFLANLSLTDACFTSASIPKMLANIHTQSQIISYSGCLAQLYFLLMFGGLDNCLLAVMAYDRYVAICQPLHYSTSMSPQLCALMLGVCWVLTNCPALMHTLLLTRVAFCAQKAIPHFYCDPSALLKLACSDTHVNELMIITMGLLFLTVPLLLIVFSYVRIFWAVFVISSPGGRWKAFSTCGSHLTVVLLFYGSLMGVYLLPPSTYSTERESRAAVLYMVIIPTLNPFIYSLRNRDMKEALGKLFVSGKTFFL
How it was run: as §1

[9] = test system: T9, OR1N2
T9 sequence (whole entry): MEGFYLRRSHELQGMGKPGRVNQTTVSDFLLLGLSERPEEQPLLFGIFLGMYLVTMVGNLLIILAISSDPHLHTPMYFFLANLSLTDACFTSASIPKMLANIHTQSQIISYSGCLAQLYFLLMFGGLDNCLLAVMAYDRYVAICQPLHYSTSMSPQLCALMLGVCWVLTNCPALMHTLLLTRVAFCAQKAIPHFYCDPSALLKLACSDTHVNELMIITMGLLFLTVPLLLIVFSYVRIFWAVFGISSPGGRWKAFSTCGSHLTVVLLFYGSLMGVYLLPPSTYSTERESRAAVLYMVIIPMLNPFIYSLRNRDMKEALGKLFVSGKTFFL
How it was run: as §1

[10] = test system: T10, OR1Q1
T10 sequence (whole entry): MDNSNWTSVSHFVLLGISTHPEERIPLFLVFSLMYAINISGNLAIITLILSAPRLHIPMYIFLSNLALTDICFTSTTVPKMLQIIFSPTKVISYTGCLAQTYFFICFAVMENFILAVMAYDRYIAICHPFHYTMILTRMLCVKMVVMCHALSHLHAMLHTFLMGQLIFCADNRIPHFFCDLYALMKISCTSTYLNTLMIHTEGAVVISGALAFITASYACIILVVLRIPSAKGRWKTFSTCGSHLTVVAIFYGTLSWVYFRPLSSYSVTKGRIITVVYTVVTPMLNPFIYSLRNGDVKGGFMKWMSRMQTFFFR
How it was run: as §1

[11] = test system: T11, OR1S1
T11 sequence (whole entry): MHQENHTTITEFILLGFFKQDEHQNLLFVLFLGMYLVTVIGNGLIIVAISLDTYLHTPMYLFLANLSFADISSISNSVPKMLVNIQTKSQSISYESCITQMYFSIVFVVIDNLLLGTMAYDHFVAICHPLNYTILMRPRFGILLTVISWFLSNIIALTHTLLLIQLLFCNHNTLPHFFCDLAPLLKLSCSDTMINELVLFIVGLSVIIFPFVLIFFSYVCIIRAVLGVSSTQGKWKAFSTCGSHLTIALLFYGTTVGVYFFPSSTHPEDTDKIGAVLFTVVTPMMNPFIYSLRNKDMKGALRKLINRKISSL
How it was run: as §1

[12] = test system: T12, OR1S2
T12 sequence (whole entry): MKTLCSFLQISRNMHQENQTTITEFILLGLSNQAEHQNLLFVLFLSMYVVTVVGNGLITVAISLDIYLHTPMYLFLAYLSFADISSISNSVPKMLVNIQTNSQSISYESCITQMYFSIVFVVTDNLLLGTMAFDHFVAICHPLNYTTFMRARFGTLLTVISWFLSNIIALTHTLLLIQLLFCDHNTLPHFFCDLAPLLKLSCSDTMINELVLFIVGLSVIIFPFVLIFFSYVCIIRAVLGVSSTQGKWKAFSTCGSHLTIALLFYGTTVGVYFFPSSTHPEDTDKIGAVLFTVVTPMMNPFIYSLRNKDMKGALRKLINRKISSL
How it was run: as §1

[13] = target: T13, OR2A12 (Homo sapiens) (UniProt Q8NGT7)
T13 sequence (whole entry): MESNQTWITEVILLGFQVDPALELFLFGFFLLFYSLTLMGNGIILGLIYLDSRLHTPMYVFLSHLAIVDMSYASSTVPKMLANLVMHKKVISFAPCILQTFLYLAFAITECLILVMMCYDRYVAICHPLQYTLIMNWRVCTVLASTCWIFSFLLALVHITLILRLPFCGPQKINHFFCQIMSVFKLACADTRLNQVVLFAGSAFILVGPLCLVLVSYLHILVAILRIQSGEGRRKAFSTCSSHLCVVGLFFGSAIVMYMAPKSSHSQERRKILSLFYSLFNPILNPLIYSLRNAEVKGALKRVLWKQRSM
How it was run: as §1

[14] = target: T14, OR2A1 (Homo sapiens) (UniProt Q8NGT9)
T14 sequence (whole entry): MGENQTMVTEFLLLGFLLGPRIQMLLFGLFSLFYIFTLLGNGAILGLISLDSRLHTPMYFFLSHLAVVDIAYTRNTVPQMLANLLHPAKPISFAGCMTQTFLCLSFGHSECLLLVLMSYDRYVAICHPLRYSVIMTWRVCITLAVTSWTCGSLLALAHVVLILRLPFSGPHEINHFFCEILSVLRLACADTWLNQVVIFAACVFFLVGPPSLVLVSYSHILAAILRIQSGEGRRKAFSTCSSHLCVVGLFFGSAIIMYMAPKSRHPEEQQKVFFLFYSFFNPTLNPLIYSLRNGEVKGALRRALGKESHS
How it was run: as §1

Compound	odorant receptor agonist call [1]	odorant receptor agonist call [2]	odorant receptor agonist call [3]	odorant receptor agonist call [4]	odorant receptor agonist call [5]	odorant receptor agonist call [6]	odorant receptor agonist call [7]	odorant receptor agonist call [8]	odorant receptor agonist call [9]	odorant receptor agonist call [10]	odorant receptor agonist call [11]	odorant receptor agonist call [12]	odorant receptor agonist call [13]	odorant receptor agonist call [14]
CC(=O)OCC=C(C)CCC=C(C)C	inactive	inactive	inactive	inactive	inactive	inactive	inactive	inactive	inactive	inactive	inactive	inactive	inactive	–
CC(C)CCC(=O)O	inactive	inactive	inactive	inactive	inactive	inactive	inactive	inactive	inactive	inactive	inactive	inactive	inactive	–
CC(=O)C(C)=O	inactive	inactive	inactive	inactive	inactive	inactive	inactive	inactive	inactive	inactive	inactive	inactive	inactive	–
CC1CCC(C(C)C)C(O)C1 (stereo not given)	inactive	inactive	inactive	active	inactive	inactive	active	inactive	inactive	inactive	active	inactive	inactive	inactive
O=CCc1ccccc1	inactive	inactive	inactive	inactive	inactive	inactive	inactive	inactive	inactive	inactive	inactive	inactive	inactive	–
CC(C)CC(=O)O	inactive	inactive	inactive	inactive	inactive	inactive	inactive	inactive	inactive	inactive	inactive	inactive	inactive	inactive

Source: the M2OR odorant receptor database
